Experimental data reported in patent publication US20030087942A1, “Method for the treatment and prevention of cachexia” (Washington University, priority 2001, published 2003).

Tests used:
[1] = without LPS; gavage; indomethacin 150 μg/dose, Compound 1 and Compound 2 300 μg/dose (10 mg/kg)
Protocol: (§1) Animal housing. […] For pharmacological inhibitor studies, male C3H/HeN mice (Harlan Sprague Dawley, Inc., Indianapolis, Ind.) 10-12 wks of age were evaluated according to the method of Gross et al., Am J Physiol 278: R1415-23, 2000. See also Silver et al., J Clin Invest 95: 725-31, 1995. […] Control mice designated “WT” for the COX KO experiments were WT and heterozygous littermates arising from the COX-2 heterozygous matings. All mouse protocols were in accordance with NIH guidelines and approved by the Animal Care and Use Committee of Washington University School of Medicine.

[2] = LPS-induced weight loss; assay type: in vivo, mice (C3H/HeN)
Protocol: as §1

[3] = fasted for 16 h following LPS administration
[4] = 24 h period following LPS; 300 μg/dose (10 mg/kg) gavage
[5] = system: corticosterone; settings: 3 h and 16 h after LPS

Structure (SMILES)	change in body weight relative to vehicle-treated control mice [1]	weight loss associated with LPS administration, vs. vehicle/LPS ([2]; 100 μg LPS i.p., gavage 30 min before, 8 and 24 h after LPS, indomethacin 150 μg/dose, Compound 1 300 μg/dose)	weight loss relative to the vehicle/LPS and Compound 2/LPS groups ([2]; one day after LPS treatment, 300 μg/dose (10 mg/kg) gavage)	weight loss vs. vehicle, mice fasted after LPS [3]	increase of food intake in comparison to mice receiving LPS alone [4] [%]	magnitude or duration of adrenal activation (plasma corticosterone) vs. LPS alone [5]
COc1ccc(-n2nc(C(F)(F)F)cc2-c2ccc(Cl)cc2)cc1 [Compound 2, reference compound]	no change in body weight	–	–	–	–	–
NS(=O)(=O)c1ccc(-n2nc(C(F)(F)F)cc2-c2ccc(Cl)cc2)cc1 [Compound 1]	no change in body weight	significantly attenuated weight loss	approximately 50%	identical weight loss	50	no difference
